This test deals with CD95-mGFP and CD95-mCherry (human) (UniProt P25445). In words: FRET or BRET.

Amino acid sequences for entries named in this document (tags omitted). A change or cut given only in a name is not applied to a line headed by its entry. Chains listed by the source or under a name are the forms on record and can include a tag or linker.
CD95-mGFP and CD95-mCherry (P25445, form named): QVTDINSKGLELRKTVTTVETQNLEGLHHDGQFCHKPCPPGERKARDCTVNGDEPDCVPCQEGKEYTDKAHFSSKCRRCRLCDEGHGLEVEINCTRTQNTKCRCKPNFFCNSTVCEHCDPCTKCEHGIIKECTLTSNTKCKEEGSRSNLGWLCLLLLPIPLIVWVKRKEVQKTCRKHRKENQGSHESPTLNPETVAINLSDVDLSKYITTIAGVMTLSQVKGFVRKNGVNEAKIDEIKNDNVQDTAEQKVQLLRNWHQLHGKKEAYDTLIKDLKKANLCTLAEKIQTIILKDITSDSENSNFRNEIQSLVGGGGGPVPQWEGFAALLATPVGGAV

Among the data in publication doi:10.1101/293530 are binding values, retold here.

These are yes or no findings as the source states them, for the method shown. In cells and extracts the contact can be indirect.

Regarding “CD95-mGFP and CD95-mCherry (from UniProt P25445 26-335) (receptor)”, the binding entry is given as “no binding”.
